Laboratory results reported in article PMC5342420, “CD109 is identified as a potential nasopharyngeal carcinoma biomarker using aptamer selected by cell-SELEX”.
Construct, isoform or probe ends are uncertain for at least one entry. Where cells or extracts were used, other partners may take part. For some assays here: Protein sequences can lack the tags named with them.

Columns and labels:
[1] = molecular target: CD109 expressed on 293T cells (UniProt Q6YHK3); experiment: flow cytometry; settings: CD109-transfected 293T, no binding to native or empty-vector 293T; Cells: D-PBS (Ca/Mg-free) + 4.5 g/L glucose, 5 mM MgCl2, 0.1 mg/mL yeast tRNA, 1 mg/mL BSA, 10% FBS, on ice 0.5 h; protein on the cell surface; label: FITC; single-stranded DNA
CD109 (5-8F cell lysate) = molecular target: T1, CD109 (5-8F cell lysate) (UniProt Q6YHK3); experiment: pull-down with mass spectrometry; settings: 5-8F lysate, streptavidin beads, 4 C, no S3-specific band with library or beads only; Cells: D-PBS (Ca/Mg-free) + 4.5 g/L glucose, 5 mM MgCl2, 0.1 mg/mL yeast tRNA, 1 mg/mL BSA, 10% FBS, on ice 0.5 h; protein in an extract; label: biotin; single-stranded DNA
T1 sequence (looked up, limits assumed): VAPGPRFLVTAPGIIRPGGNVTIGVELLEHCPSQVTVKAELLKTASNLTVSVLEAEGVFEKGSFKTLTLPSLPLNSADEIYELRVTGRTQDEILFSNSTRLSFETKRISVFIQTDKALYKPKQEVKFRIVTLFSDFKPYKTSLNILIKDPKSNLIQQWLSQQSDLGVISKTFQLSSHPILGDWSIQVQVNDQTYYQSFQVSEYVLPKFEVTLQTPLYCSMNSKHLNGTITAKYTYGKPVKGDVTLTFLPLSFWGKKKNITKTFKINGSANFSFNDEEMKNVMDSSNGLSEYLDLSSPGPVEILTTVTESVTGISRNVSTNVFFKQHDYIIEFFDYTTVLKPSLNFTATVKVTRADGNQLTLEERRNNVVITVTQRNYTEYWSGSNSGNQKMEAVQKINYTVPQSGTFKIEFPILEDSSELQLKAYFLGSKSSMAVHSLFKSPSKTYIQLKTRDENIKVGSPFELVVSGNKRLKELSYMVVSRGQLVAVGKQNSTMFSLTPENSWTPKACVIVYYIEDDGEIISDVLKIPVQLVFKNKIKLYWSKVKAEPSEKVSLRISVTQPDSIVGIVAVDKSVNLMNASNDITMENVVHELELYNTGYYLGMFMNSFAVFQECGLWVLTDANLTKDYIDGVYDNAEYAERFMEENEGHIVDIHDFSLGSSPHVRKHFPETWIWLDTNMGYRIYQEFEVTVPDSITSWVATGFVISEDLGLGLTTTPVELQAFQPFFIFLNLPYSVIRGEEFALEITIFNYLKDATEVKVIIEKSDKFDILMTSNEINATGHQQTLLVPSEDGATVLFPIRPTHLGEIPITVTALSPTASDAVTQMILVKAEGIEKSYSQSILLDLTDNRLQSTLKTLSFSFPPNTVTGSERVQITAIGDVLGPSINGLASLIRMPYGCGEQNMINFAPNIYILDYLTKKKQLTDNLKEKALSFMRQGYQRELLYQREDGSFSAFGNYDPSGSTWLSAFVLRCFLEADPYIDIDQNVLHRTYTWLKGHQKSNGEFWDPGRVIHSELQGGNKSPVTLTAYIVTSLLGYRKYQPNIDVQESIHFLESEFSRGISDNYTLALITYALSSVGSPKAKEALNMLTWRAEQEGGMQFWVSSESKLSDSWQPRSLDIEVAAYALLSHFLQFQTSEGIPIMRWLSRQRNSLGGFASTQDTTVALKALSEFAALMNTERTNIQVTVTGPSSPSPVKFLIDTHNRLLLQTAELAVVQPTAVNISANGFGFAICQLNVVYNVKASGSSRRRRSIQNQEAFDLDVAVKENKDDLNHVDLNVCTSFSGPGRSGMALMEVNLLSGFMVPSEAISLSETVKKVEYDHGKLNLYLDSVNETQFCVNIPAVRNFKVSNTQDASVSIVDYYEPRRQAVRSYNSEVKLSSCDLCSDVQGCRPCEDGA

| Sequence | binding result [1] | binding result (CD109 (5-8F cell lysate)) |
| --- | --- | --- |
| ATCCAGAGTGACGCAGCATCTGAGAATAGTGGTTTGCTGTATGGTGGGCGTTGAAAGAGGGGTGGACACGGTGGCTTAGT [S3 (FITC-labeled)] | binds | – |
| ATCCAGAGTGACGCAGCATCTGAGAATAGTGGTTTGCTGTATGGTGGGCGTTGAAAGAGGGGTGGACACGGTGGCTTAGT [S3 (biotin-labeled)] | – | binds |
